{"source": "PubChem BioAssay AID504444", "about": "(National Center for Advancing Translational Sciences (NCATS), 2011)", "note": "Screen size: about 360,000 compounds; about 7,500 (2.1%) were called active. This list was built around the results that the source calls inconclusive (neither active nor inactive); the mix of calls is not that of the screen. The call rests on the fitted dose curve; in most records, active means well fitted inhibition curve with a large enough effect; inconclusive means small, poorly fitted or top-dose-only effect, or effect the other way; inactive means flat fitted curve, though single readings scatter. Potencies beside an inconclusive call are fits to weak or partial responses and may not hold up. Potency means the concentration at half of the fitted maximal effect."}
{"experiment": "Nrf2 qHTS screen for inhibitors; further: nearly all actives have a fitted effect of over 60% in size", "settings": "A549 ARE-Fluc reporter, luciferase luminescence, 18-24 h; series mostly up to 46 µM", "procedure,_shortened": "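Nrf2 function is reported as luminescence of an ARE-controlled luciferase in A549 cells. Compounds were tested at several concentrations, and a CellTiter-Fluor read on the same wells flagged cytotoxicity.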"}
{"smiles": "O=C(c1ccc(CS(=O)c2ccccc2Cl)o1)N1CCN(c2ccccc2F)CC1", "note": "(stereo not drawn)", "Potency": "inactive"}
{"smiles": "Cc1cc(=O)[nH]c2n[nH]c(-c3ccccc3)c12", "Potency": "inactive"}
{"smiles": "Cc1ccc(CSCC(=O)Nc2ccccc2C(=O)O)cc1", "Potency": "inconclusive: 18.4 µM [activator, partial curve]"}
{"smiles": "CCCCOC(=O)c1nnc(-c2ccc(Cl)cc2)o1", "Potency": "inconclusive: 29.1 µM [falling, single point]"}
{"smiles": "O=C(c1ccc(NS(=O)(=O)c2ccc3c(c2)OCCO3)cc1)N1CCCCC1", "Potency": "inconclusive: 20.6 µM [falling, single point]"}
{"smiles": "Cc1ccc(NC(=S)NC2CCCC2)cc1", "Potency": "inconclusive: 8.2 µM [activator, partial curve]"}
{"smiles": "O=C(CSc1nnc(-c2ccccc2Cl)o1)N1CCCC1", "Potency": "inconclusive: 18.4 µM [activator, partial curve]"}
{"smiles": "COc1ccc(CNC(=S)Nc2ccc(F)c(Cl)c2)cc1", "Potency": "inconclusive: 14.6 µM [falling, single point]"}
{"smiles": "O=C(O)c1cn(-c2ccc(F)c(F)c2)c2c(F)c(F)c(F)c(F)c2c1=O", "Potency": "inconclusive: 23.1 µM [falling, single point]"}
{"smiles": "COc1cccc(NC(=O)CSc2ccccn2)c1", "Potency": "inconclusive: 29.1 µM [activator, single point]"}
{"smiles": "C[C@@H]1CN([C@H](C)CO)C(=O)c2cc(NC(=O)Nc3ccc(C(F)(F)F)cc3)ccc2O[C@H]1CN(C)S(=O)(=O)c1ccc(Cl)cc1", "Potency": "inconclusive: 29.1 µM [falling, single point]"}
{"smiles": "COc1ccc2nc(-c3ccc(F)cc3)sc2c1", "Potency": "inconclusive: 0.58 µM [activator, partial curve]"}
{"smiles": "COc1ccc(C2c3ccc4ccccc4c3Oc3ncn(CCN(C)C)c(=N)c32)cc1", "note": "(stereo not drawn)", "Potency": "inactive"}
{"smiles": "c1ccc(CCNc2ccnc3cc4ccccc4cc23)cc1", "Potency": "inconclusive: 13 µM [falling, partial curve]"}
{"smiles": "COc1ccc(S(=O)(=O)N2CCCCCC2)cc1C(=O)N(C)Cc1ccc(Cl)cc1Cl", "Potency": "inconclusive: 18.4 µM [falling, single point]"}
{"smiles": "Cc1ccc(NC(=O)Cn2c(=O)nc(-c3ccccc3F)c3cc(Cl)ccc32)c(Br)c1", "Potency": "inconclusive: 29.1 µM [falling, single point]"}
{"smiles": "CCOc1ccccc1CNC(=O)C1CCN(C(=O)N2CC(C)Oc3ccc(C)cc32)CC1", "note": "(stereo not drawn)", "Potency": "inconclusive: 18.4 µM [falling, single point]"}
{"smiles": "CCCCc1ccc(-c2ccc(C)cc2O)nc1", "Potency": "inconclusive: 5.17 µM [activator, partial curve, poor fit]"}
